According to patent US20140038203A1, “METHODS FOR DETECTING OR PREDICTING KIDNEY DISEASE” (MUSC FOUNDATION FOR RESEARCH DEVELOPMENT, priority 2012, published 2014):

B1: Keratin, type II cytoskeletal 8 (protein, UniProt P05787 1-483, looked up)
Keratin, type II cytoskeletal …: MSIRVTQKSYKVSTSGPRAFSSRSYTSGPGSRISSSSFSRVGSSNFRGGLGGGYGGASGMGGITAVTVNQSLLSPLVLEVDPNIQAVRTQEKEQIKTLNNKFASFIDKVRFLEQQNKMLETKWSLLQQQKTARSNMDNMFESYINNLRRQLETLGQEKLKLEAELGNMQGLVEDFKNKYEDEINKRTEMENEFVLIKKDVDEAYMNKVELESRLEGLTDEINFLRQLYEEEIRELQSQISDTSVVLSMDNSRSLDMDSIIAEVKAQYEDIANRSRAEAESMYQIKYEELQSLAGKHGDDLRRTKTEISEMNRNISRLQAEIEGLKGQRASLEAAIADAEQRGELAIKDANAKLSELEAALQRAKQDMARQLREYQELMNVKLALDIEIATYRKLLEGEESRLESGMQNMSIHTKTTSGYAGGLSSAYGGLTSPGLSYSLGSSFGSGAGSSSFSRTSSSRAVVVKKIETRDGKLVSESSDVLPK
B2: Tumor necrosis factor receptor superfamily member 14 (protein, UniProt Q92956 39-283, looked up)
Tumor necrosis factor …: LPSCKEDEYPVGSECCPKCSPGYRVKEACGELTGTVCEPCPPGTYIAHLNGLSKCLQCQMCDPAMGLRASRNCSRTENAVCGCSPGHFCIVQDGDHCAACRAYATSSPGQRVQKGGTESQDTLCQNCPPGTFSPNGTLEECQHQTKCSWLVTKAGAGTSSSHWVWWFLSGSLVIVIVCSTVGLIICVKRRKPRGDVVKVIVSVQRKRQEAEGEATVIEALQAPPDVTTVAVEETIPSFTGRSPNH
B3: Secreted and transmembrane protein 1 (protein, UniProt Q8WVN6 29-248, looked up)
Secreted and transmembrane …: QNEGWDSPICTEGVVSVSWGENTVMSCNISNAFSHVNIKLRAHGQESAIFNEVAPGYFSRDGWQLQVQGGVAQLVIKGARDSHAGLYMWHLVGHQRNNRQVTLEVSGAEPQSAPDTGFWPVPAVVTAVFILLVALVMFAWYRCRCSQQRREKKFFLLEPQMKVAALRAGAQQGLSRASAELWTPDSEPTPRPLALVFKPSPLGALELLSPQPLFPYAADP
B4: Protein shisa-5 (protein, UniProt Q8N114 29-240, looked up)
Protein shisa-5: EVCMASRGLSLFPESCPDFCCGTCDDQYCCSDVLKKFVWSEERCAVPEASVPASVEPVEQLGSALRFRPGYNDPMSGFGATLAVGLTIFVLSVVTIIICFTCSCCCLYKTCRRPRPVVTTTTSTTVVHAPYPQPPSVPPSYPGPSYQGYHTMPPQPGMPAAPYPMQYPPPYPAQPMGPPAYHETLAGGAAAPYPASQPPYNPAYMDAPKAAL
B5: Carboxypeptidase N subunit 2 (protein, UniProt P22792 22-545, looked up)
Carboxypeptidase N subunit 2: CPMGCDCFVQEVFCSDEELATVPLDIPPYTKNIIFVETSFTTLETRAFGSNPNLTKVVFLNTQLCQFRPDAFGGLPRLEDLEVTGSSFLNLSTNIFSNLTSLGKLTLNFNMLEALPEGLFQHLAALESLHLQGNQLQALPRRLFQPLTHLKTLNLAQNLLAQLPEELFHPLTSLQTLKLSNNALSGLPQGVFGKLGSLQELFLDSNNISELPPQVFSQLFCLERLWLQRNAITHLPLSIFASLGNLTFLSLQWNMLRVLPAGLFAHTPCLVGLSLTHNQLETVAEGTFAHLSNLRSLMLSYNAITHLPAGIFRDLEELVKLYLGSNNLTALHPALFQNLSKLELLSLSKNQLTTLPEGIFDTNYNLFNLALHGNPWQCDCHLAYLFNWLQQYTDRLLNIQTYCAGPAYLKGQVVPALNEKQLVCPVTRDHLGFQVTWPDESKAGGSWDLAVQERAARSQCTYSNPEGTVVLACDQAQCRWLNVQLSPQQGSLGLQYNASQEWDLRSSCGSLRLTVSIEARAAGP
B6: Pro-epidermal growth factor (protein, UniProt P01133 23-1207, looked up)
pro-form: PQHWSCPEGTLAGNGNSTCVGPAPFLIFSHGNSIFRIDTEGTNYEQLVVDAGVSVIMDFHYNEKRIYWVDLERQLLQRVFLNGSRQERVCNIEKNVSGMAINWINEEVIWSNQQEGIITVTDMKGNNSHILLSALKYPANVAVDPVERFIFWSSEVAGSLYRADLDGVGVKALLETSEKITAVSLDVLDKRLFWIQYNREGSNSLICSCDYDGGSVHISKHPTQHNLFAMSLFGDRIFYSTWKMKTIWIANKHTGKDMVRINLHSSFVPLGELKVVHPLAQPKAEDDTWEPEQKLCKLRKGNCSSTVCGQDLQSHLCMCAEGYALSRDRKYCEDVNECAFWNHGCTLGCKNTPGSYYCTCPVGFVLLPDGKRCHQLVSCPRNVSECSHDCVLTSEGPLCFCPEGSVLERDGKTCSGCSSPDNGGCSQLCVPLSPVSWECDCFPGYDLQLDEKSCAASGPQPFLLFANSQDIRHMHFDGTDYGTLLSQQMGMVYALDHDPVENKIYFAHTALKWIERANMDGSQRERLIEEGVDVPEGLAVDWIGRRFYWTDRGKSLIGRSDLNGKRSKIITKENISQPRGIAVHPMAKRLFWTDTGINPRIESSSLQGLGRLVIASSDLIWPSGITIDFLTDKLYWCDAKQSVIEMANLDGSKRRRLTQNDVGHPFAVAVFEDYVWFSDWAMPSVMRVNKRTGKDRVRLQGSMLKPSSLVVVHPLAKPGADPCLYQNGGCEHICKKRLGTAWCSCREGFMKASDGKTCLALDGHQLLAGGEVDLKNQVTPLDILSKTRVSEDNITESQHMLVAEIMVSDQDDCAPVGCSMYARCISEGEDATCQCLKGFAGDGKLCSDIDECEMGVPVCPPASSKCINTEGGYVCRCSEGYQGDGIHCLDIDECQLGEHSCGENASCTNTEGGYTCMCAGRLSEPGLICPDSTPPPHLREDDHHYSVRNSDSECPLSHDGYCLHDGVCMYIEALDKYACNCVVGYIGERCQYRDLKWWELRHAGHGQQQKVIVVAVCVVVLVMLLLLSLWGAHYYRTQKLLSKNPKNPYEESSRDVRSRRPADTEDGMSSCPQPWFVVIKEHQDLKNGGQPVAGEDGQAADGSMQPTSWRQEPQLCGMGTEQGCWIPVSSDKGSCPQVMERSFHMPSYGTQTLEGGVEKPHSLLSANPLWQQRALDPPHQMELTQ
modifications: pro-form
B7: Keratin, type II cytoskeletal 2 epidermal (protein, UniProt P35908 1-639, looked up)
Keratin, type II cytoskeletal …: MSCQISCKSRGRGGGGGGFRGFSSGSAVVSGGSRRSTSSFSCLSRHGGGGGGFGGGGFGSRSLVGLGGTKSISISVAGGGGGFGAAGGFGGRGGGFGGGSSFGGGSGFSGGGFGGGGFGGGRFGGFGGPGGVGGLGGPGGFGPGGYPGGIHEVSVNQSLLQPLNVKVDPEIQNVKAQEREQIKTLNNKFASFIDKVRFLEQQNQVLQTKWELLQQMNVGTRPINLEPIFQGYIDSLKRYLDGLTAERTSQNSELNNMQDLVEDYKKKYEDEINKRTAAENDFVTLKKDVDNAYMIKVELQSKVDLLNQEIEFLKVLYDAEISQIHQSVTDTNVILSMDNSRNLDLDSIIAEVKAQYEEIAQRSKEEAEALYHSKYEELQVTVGRHGDSLKEIKIEISELNRVIQRLQGEIAHVKKQCKNVQDAIADAEQRGEHALKDARNKLNDLEEALQQAKEDLARLLRDYQELMNVKLALDVEIATYRKLLEGEECRMSGDLSSNVTVSVTSSTISSNVASKAAFGGSGGRGSSSGGGYSSGSSSYGSGGRQSGSRGGSGGGGSISGGGYGSGGGSGGRYGSGGGSKGGSISGGGYGSGGGKHSSGGGSRGGSSSGGGYGSGGGGSSSVKGSSGEAFGSSVTFSFR
B8: Phosphoinositide-3-kinase-interacting protein 1 (protein, UniProt Q96FE7 22-263, looked up)
Phosphoinositide-3-kinase-inte …: SGGCFWDNGHLYREDQTSPAPGLRCLNWLDAQSGLASAPVSGAGNHSYCRNPDEDPRGPWCYVSGEAGVPEKRPCEDLRCPETTSQALPAFTTEIQEASEGPGADEVQVFAPANALPARSEAAAVQPVIGISQRVRMNSKEKKDLGTLGYVLGITMMVIIIAIGAGIILGYSYKRGKDLKEQHDQKVCEREMQRITLPLSAFTNPTCEIVDEKTVVVHTSQTPVDPQEGTTPLMGQAGTPGA
B9: Src substrate cortactin (protein, UniProt Q14247 1-550, looked up)
Src substrate cortactin: MWKASAGHAVSIAQDDAGADDWETDPDFVNDVSEKEQRWGAKTVQGSGHQEHINIHKLRENVFQEHQTLKEKELETGPKASHGYGGKFGVEQDRMDKSAVGHEYQSKLSKHCSQVDSVRGFGGKFGVQMDRVDQSAVGFEYQGKTEKHASQKDYSSGFGGKYGVQADRVDKSAVGFDYQGKTEKHESQRDYSKGFGGKYGIDKDKVDKSAVGFEYQGKTEKHESQKDYVKGFGGKFGVQTDRQDKCALGWDHQEKLQLHESQKDYKTGFGGKFGVQSERQDSAAVGFDYKEKLAKHESQQDYSKGFGGKYGVQKDRMDKNASTFEDVTQVSSAYQKTVPVEAVTSKTSNIRANFENLAKEKEQEDRRKAEAERAQRMAKERQEQEEARRKLEEQARAKTQTPPVSPAPQPTEERLPSSPVYEDAASFKAELSYRGPVSGTEPEPVYSMEAADYREASSQQGLAYATEAVYESAEAPGHYPAEDSTYDEYENDLGITAVALYDYQAAGDDEISFDPDDIITNIEMIDDGWWRGVCKGRYGLFPANYVELRQ
B10: Trefoil factor 2 (protein, UniProt Q03403 24-129, looked up)
Trefoil factor 2: EKPSPCQCSRLSPHNRTNCGFPGITSDQCFDNGCCFDSSVTGVPWCFHPLPKQESDQCVMEVSDRRNCGYPGISPEECASRKCCFSNFIFEVPWCFFPKSVEDCHY
B11: Growth/differentiation factor 15 (protein, UniProt Q99988 195-308, looked up)
Growth/differentiation factor …: ARARNGDHCPLGPGRCCRLHTVRASLEDLGWADWVLSPREVQVTMCIGACPSQFRAANMHAQIKTSLHRLKPDTVPAPCCVPASYNPMVLIQKTDTGVSLQTYDDLLAKDCHCI
B12: Biotinidase (protein, UniProt P43251 42-543, looked up)
Biotinidase: AHTGEESVADHHEAEYYVAAVYEHPSILSLNPLALISRQEALELMNQNLDIYEQQVMTAAQKDVQIIVFPEDGIHGFNFTRTSIYPFLDFMPSPQVVRWNPCLEPHRFNDTEVLQRLSCMAIRGDMFLVANLGTKEPCHSSDPRCPKDGRYQFNTNVVFSNNGTLVDRYRKHNLYFEAAFDVPLKVDLITFDTPFAGRFGIFTCFDILFFDPAIRVLRDYKVKHVVYPTAWMNQLPLLAAIEIQKAFAVAFGINVLAANVHHPVLGMTGSGIHTPLESFWYHDMENPKSHLIIAQVAKNPVGLIGAENATGETDPSHSKFLKILSGDPYCEKDAQEVHCDEATKWNVNAPPTFHSEMMYDNFTLVPVWGKEGYLHVCSNGLCCYLLYERPTLSKELYALGVFDGLHTVHGTYYIQVCALVRCGGLGFDTCGQEITEATGIFEFHLWGNFSTSYIFPLFLTSGMTLEVPDQLGWENDHYFLRKSRLSSGLVTAALYGRLYERD

Experiment: RRT study: LC-MS/MS urinary proteomics, AKI after cardiac surgery, RRT vs No RRT
Parameters: species or system human
Settings: direction of differential abundance, patients who did vs did not require RRT/dialysis
For B1, the “Up or Down” value was “Down”. In the case of B2, the “Up or Down” value is reported as “Down”. With B3 the “Up or Down” value was “Down”. With B4 the “Up or Down” value was “Down”. In the case of B5, the “Up or Down” value is reported as “Down”. With B6 the “Up or Down” value was “Down”. With B7 the “Up or Down” value was “Down”. In the case of B8, the “Up or Down” value is reported as “Down”. With B9 the “Up or Down” value was “Down”. In the case of B10, the “Up or Down” value is reported as “Down”. With B11 the “Up or Down” value was “Down”. With B12 the “Up or Down” value was “Down”.

Same assay, conditions: patients who did vs did not require RRT/dialysis
In the case of B1, the “Mean Fold Change” value is reported as 2.543. For B2, the “Mean Fold Change” value was 3.609. For B3, the “Mean Fold Change” value was 2.139. In the case of B4, the “Mean Fold Change” value is reported as 2.413. In the case of B5, the “Mean Fold Change” value is reported as 1.661. In the case of B6, the “Mean Fold Change” value is reported as 1.18. For B7, the “Mean Fold Change” value was 2.673. With B8 the “Mean Fold Change” value was 1.041. With B9 the “Mean Fold Change” value was 5.782. With B10 the “Mean Fold Change” value was 1.741. With B11 the “Mean Fold Change” value was 1.011. With B12 the “Mean Fold Change” value was 1.389.
